From doi:10.1101/2024.08.06.606759
No constants are given. Whether binding was seen depends on the method and setting. Binding seen in cells or lysates may run through a third protein. Where a sequence is shown, tags or fusion partners need not be part of it.

Target: T1, RIPK4-WT-FLAG (UniProt P57078)
T1 sequence: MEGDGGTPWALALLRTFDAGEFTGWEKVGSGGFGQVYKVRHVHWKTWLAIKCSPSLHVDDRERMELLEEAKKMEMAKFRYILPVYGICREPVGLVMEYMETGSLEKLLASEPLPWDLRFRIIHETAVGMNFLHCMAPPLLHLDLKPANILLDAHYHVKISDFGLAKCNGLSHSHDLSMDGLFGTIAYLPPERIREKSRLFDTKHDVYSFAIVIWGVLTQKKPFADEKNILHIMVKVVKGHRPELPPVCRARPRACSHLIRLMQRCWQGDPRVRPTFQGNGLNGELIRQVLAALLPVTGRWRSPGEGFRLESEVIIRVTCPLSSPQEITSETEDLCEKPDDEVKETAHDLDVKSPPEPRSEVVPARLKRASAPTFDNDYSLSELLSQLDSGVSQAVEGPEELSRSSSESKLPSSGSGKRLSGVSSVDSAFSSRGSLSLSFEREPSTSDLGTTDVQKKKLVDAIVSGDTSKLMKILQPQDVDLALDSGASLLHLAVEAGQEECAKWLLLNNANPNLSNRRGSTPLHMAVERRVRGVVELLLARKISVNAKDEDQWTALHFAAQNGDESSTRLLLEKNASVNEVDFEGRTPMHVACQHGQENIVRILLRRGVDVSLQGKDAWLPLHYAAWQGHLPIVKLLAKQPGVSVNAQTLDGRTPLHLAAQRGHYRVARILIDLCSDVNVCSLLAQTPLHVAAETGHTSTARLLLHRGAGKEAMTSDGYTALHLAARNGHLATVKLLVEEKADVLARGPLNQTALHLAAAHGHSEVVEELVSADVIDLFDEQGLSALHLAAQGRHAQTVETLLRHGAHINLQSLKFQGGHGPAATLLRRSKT
Experiment: co-IP

**Q.** For MTHFD1-Δ4-HA (domain or fragment), which binding is on record?
**A.** The binding was “no binding”.
